# According to publication PMC12040169 (PLOS Biology, 2025):
# Some of the results follow.
# Test system: T1, CTL2-GFP (C. trachomatis L2/434/Bu, GFP-expressing)
# T1 construct: L2/434/Bu, GFP-expressing
# Parameters: species or system HeLa; Intracellular C. trachomatis growth in HeLa cells, bulk GFP fluorescence relative to DMSO
# Details: bulk GFP, single well; 28.5 h, 10 µM; inhibitor
row,Structure (SMILES),% of control remaining
1,COC(=O)c1c(NC(=O)COc2ccccc2Cl)sc2c1CCC(c1ccccc1)C2 (stereo not drawn) [CBK265456],132.173%
2,CN(C)CCN1CCN(c2ccc(-c3ccc(OC(F)(F)F)cc3)cn2)CC1 [CBK036796],134.337%
3,COc1ccc(OC)c(C(O)CN2CCc3sccc3C2c2cccs2)c1 (stereo not drawn) [CBK285532],75.1264%
4,Nc1ccccc1Sc1cc(C(F)(F)F)ccn1 [CBK093761],109.558%
5,COc1cc(-c2nc(N)cc3cccnc23)cc(OC)c1OC [CBK061892],121.214%
6,COc1ccccc1CC(=O)N1[C@H](Cc2ccccc2)C[C@@H]2NCCCCC[C@H]21 [CBK285978],108.09%
7,Cc1c(NC(=O)c2ccc([N+](=O)[O-])o2)cccc1-c1nc2ccccc2s1 [CBK263051],92.6613%
8,COc1nc(NCCN2CCOCC2)nc(Nc2ccccc2)n1 [CBK027298],100.055%
9,CSc1ccc(-c2cn3ccnc3c(NCCc3ccncc3)n2)cc1 [CBK066479],191.138%
10,O=C(Nc1cccnc1)c1cnc2cc(Cl)ccc2c1O [CBK107353],133.801%
11,O=C1CC(c2nc(-c3ccncc3)no2)CN1c1ccc2c(c1)OCO2 (stereo not drawn) [CBK288583],95.4231%
12,O=C(NCCO)c1ccc(CSc2nc3sc4c(c3c(=O)[nH]2)CCCC4)cc1 [CBK263522],100%
13,O=c1cc(-c2ccccc2)nc(SCc2nc(-c3cccs3)no2)[nH]1 [CBK268416],102.538%
14,CCCC/C=C/c1cn2ccnc2c(NCCc2cccnc2)n1 [CBK066235],146.556%
15,CC(=O)[C@H]1C[C@@H](CC(=O)NCc2csc(-c3ccccc3)n2)C1(C)C [CBK092335],85.4372%
16,CNC(=O)C1CCN(S(=O)(=O)c2ccc(C(C)(C)C)cc2)CC1 [CBK051544],99.6837%
17,CC(=O)Nc1ccc(C(=O)CSc2nnc(C)o2)cc1 [CBK267851],96.0293%
18,CC(=O)N1CC2(CCCC2)c2c(F)cccc21 [CBK306339],144.541%
19,Cc1cc(C)nc(Nc2n[nH]c(COc3ccccc3)n2)n1 [CBK268016],134.017%
20,N#Cc1ccccc1CSc1nc(N2CCOCC2)nc(N2CCOCC2)n1 [CBK268998],148.739%
21,Cc1ccc(Nc2nc(N(C)C)nc3[nH]ncc23)cc1 [CBK288098],114.814%
22,OC1(c2cccnc2F)CCN(Cc2cccc(F)c2F)CC1 [CBK284375],105.516%
23,COc1ccc(S(=O)(=O)Nc2nccnc2-c2ccc(CN3C(=O)CCC3=O)cc2)cc1 [CBK050699],104.723%
24,CCc1cccc(NC(=O)CCc2ccccc2)c1 [CBK263637],79.0194%
25,Nc1csc(C2CCOCC2)n1 [CBK019258],131.669%
26,CC(Sc1nc(-c2cccnc2)ccc1C#N)C(=O)O (stereo not drawn) [CBK267452],144.698%

row,Structure (SMILES),% of control remaining
1,O=C(Cc1cc(Cl)ccc1C(F)(F)F)Nc1ccc2ncccc2c1 [CBK159802],123.073%
2,Cc1nc2n(n1)C1=CC(C)(C)CC(=O)C1=NN2 [CBK019050],148.472%
3,Cc1noc(C)c1NC(=O)c1nccc2ccccc12 [CBK200310],96.3321%
4,CN(C)/C=N/c1nc(=O)n([C@H]2CC(O)[C@@H](CO)O2)cc1/C=C/C(=O)NCCCCCCNC(=O)C(F)(F)F (stereo partly drawn) [CBK201330],113.869%
5,Cc1ccc(-c2csc3ncnc(Cl)c23)cc1 [CBK287765],95.7968%
6,Cc1cc(C(C)(C)C)oc1C(=O)N1CCn2c(nnc2C2CC2)C1 [CBK283771],138.693%
7,Cc1c(C(=O)NCc2cc(C3CC3)[nH]n2)[nH]c2c(Cl)cccc12 [CBK282533],132.186%
8,O=C(Nc1ccccc1C(F)(F)F)N1CCN(c2ccccc2Cl)CC1 [CBK045081],120.363%
9,CCCN1C(=O)c2ccc(C(=O)Nc3cc(C(=O)O)cc(C(=O)O)c3)cc2C1=O [CBK266441],128.606%
10,COc1ccc(Cc2nc(C3CC3)n(CC(F)(F)F)n2)cc1 [CBK307686],117.015%
11,CSc1nc2n(n1)C(C)C1=C(CCCC1=O)N2 (stereo not drawn) [CBK288169],101.892%
12,CCCCCOc1ccc(Nc2cc(-c3ccccc3N(C)C)ncn2)cc1 [CBK090890],81.4073%
13,CC(C)c1csc(NC(=O)CC2CCN(C(=O)CC3CCCCC3)CC2)n1 [CBK285963],126.233%
14,O=C(Nc1sc2c(c1C(=O)NCC1CCCO1)CCCC2)c1ccccc1[N+](=O)[O-] (stereo not drawn) [CBK264608],120.729%
15,COc1ccc(-c2nc(C3CCNCC3)n3ccccc23)cc1 [CBK035971],141.833%
16,COc1ccc(N2CCN(c3cc(-c4cccc5ccccc45)ncn3)CC2)cc1OC [CBK091022],184.409%
17,Cc1ccc(C(=O)NCc2cccnc2)c(N2CCOCC2)n1 [CBK076400],147.661%
18,CCOC(=O)c1cn(CC)c2cc(N3CCOCC3)c(F)cc2c1=O [CBK307142],136.461%
19,CC(Sc1nc(-c2ccccc2F)n[nH]1)C(=O)N1CCNC1=O (stereo not drawn) [CBK295594],142.567%
20,COc1ccc(Nc2n[nH]c3nc(C)cc(=O)n23)cc1 [CBK288117],125.904%
21,CN1CC[C@]2(c3ccc4c(c3)nnn4C)CC[C@@H](NC(=O)Nc3cc(F)cc(C(F)(F)F)c3)C[C@H]12 [CBK067800],119.928%
22,CSc1cccc(NC(=S)N2CCCCC2CCN2CCOCC2)c1 (stereo not drawn) [CBK028765],96.4463%
23,C(=C\c1ccccc1)/CN1CCC(Cc2ccccc2)CC1 [CBK126384],140.973%
24,O=C(O)Cn1nnc(-c2ccc(C(=O)O)cc2)n1 [CBK267926],124.253%
25,O=C(Nc1ccc(F)cc1Cl)c1cnc2n(c1=O)CCS2 [CBK287382],139.539%

# Three entries from above, arranged by molecular weight, low to high:
row,Structure (SMILES),% of control remaining
24,O=C(O)Cn1nnc(-c2ccc(C(=O)O)cc2)n1 [CBK267926],124.253%
23,C(=C\c1ccccc1)/CN1CCC(Cc2ccccc2)CC1 [CBK126384],140.973%
18,CCOC(=O)c1cn(CC)c2cc(N3CCOCC3)c(F)cc2c1=O [CBK307142],136.461%
